# Measurements: PubChem BioAssay AID2685 (National Center for Advancing Translational Sciences (NCATS), 2010)
# This is one part of the list. Shown are side measurements of this screen, not its main read-out; they come without a call. The list favours compounds with an active or inconclusive main result. Potencies come from curve fits of mixed quality, noted in brackets.
# Assay: qHTS Assay for Lipid Storage Modulators in Drosophila S3 Cells;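 for cell number change: cells counted by Cell Tracker Red CMTPX staining in the red channel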
# Conditions: BODIPY lipid droplet fluorescence, 18-24 h; for cell number change: measured here: cell count max response, cells fed with added oleic acid
# In short: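 Laser-scanning cytometry quantifies lipid droplet accumulation (500–530 nm total intensity; droplet/cell object ratio) in oleic acid-fed (400 uM added) Drosophila S3 cells treated with a concentration series. 20 uM Triacsin C defined 100% inhibition.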
# [1] = measured here: lipid fluorescence (Fed channel) AC50, cells fed with added oleic acid
# [2] = measured here: cell number channel AC50, cells fed with added oleic acid
SMILES,cell number change [%],AC50 [1],AC50 [2]
Cc1ccc(-n2nc3c(c2NC(=O)/C=C\c2ccc4c(c2)OCO4)CSC3)c(C)c1,11.5,"29.1 µM [rising, single point]",
COc1cccc(C(=O)NCCS(=O)(=O)NCc2ccco2)c1,26.7,"6.51 µM [falling, single point]",
Cc1nn(-c2ccccc2)c(C)c1NC(=O)COC(=O)c1ccc(Cl)c(N)c1,,"6.51 µM [rising, single point]",
COc1ccccc1N(CC(=O)NCc1ccccc1)C(=O)CCC(=O)Nc1nccs1,7.56,"29.1 µM [falling, single point]",
CCCCC[n+]1cccc2c3ccccc3ccc21,-59.4,"20.6 µM [falling, single point]","16.4 µM [falling, single point]"
O=C(Cn1c(=O)sc2ccccc21)Nc1nc2c(s1)CCCC2,-23.9,"3.66 µM [rising, partial curve, poor fit]",
Cc1cccc(NC(=S)N(C)Cc2cn(C)c3ccccc23)c1,35.3,"0.92 µM [rising, full curve, poor fit]","5.17 µM [rising, partial curve]"
S=C(Nc1ccc(Br)cc1)N1CCCC1,13,,"3.66 µM [falling, single point]"
O=C(Cc1cccs1)NCCSc1c(-c2ccc(Cl)cc2)[nH]c2ccccc12,-14.2,"0.116 µM [falling, full curve, poor fit]",
O=C(Nn1c(Cc2cccs2)nc2ccccc2c1=O)c1cccs1,-15.9,"0.00461 µM [falling, full curve, poor fit]","0.00517 µM [falling, full curve, poor fit]"
Cc1cc(C)c2oc(=O)cc(CN3CCN(Cc4ccc5c(c4)OCO5)CC3)c2c1,-3.17,"0.461 µM [rising, single point]",
CCOC(=O)CCCn1c(C)nc(=O)c(-c2ccccc2)c1C,-35.1,"0.82 µM [falling, full curve, poor fit]","0.411 µM [falling, full curve, poor fit]"
O=C(/C=C/c1ccco1)Nc1ccc(S(=O)(=O)N2CCOCC2)cc1,-7.16,,
OC(COc1ccc(Br)cc1)CN1CCOCC1 (stereo not given),-14.1,,"6.51 µM [falling, single point]"
Cc1ccc(NC(=O)CSc2nnc(Cc3cccn3C)n2-c2ccc(F)cc2)c(C)c1,1.04,,
CCn1c(NC(=O)Nc2cccc(C)c2C)cc2sccc21,-1.45,"0.651 µM [rising, full curve, poor fit]",
CCOC(=O)c1cc(C#N)c(N2CCOCC2)nc1-c1ccccc1,11.8,,
CCCNC(=O)C(Cc1ccc(F)cc1)NC(=O)c1ccccc1 (stereo not given),-11.2,"0.00517 µM [falling, full curve, poor fit]","0.58 µM [rising, partial curve]"
CN(C)/C=C/C(=O)C(F)(F)F,32.7,,

# Single values from the entries so far.
# cell number change [%], CCCNC(=O)C(Cc1ccc(F)cc1)NC(=O)c1ccccc1 (stereo not given) reads -11.2
# cell number change [%], CN(C)/C=C/C(=O)C(F)(F)F reads 32.7

# (further entries)

SMILES,cell number change [%],AC50 [1],AC50 [2]
CCNC(=O)Nc1nc2ccccc2s1,-43.8,"20.6 µM [falling, single point]","9.2 µM [falling, partial curve]"
COc1ccccc1-n1cnc2cc(C(=O)NCCCN3CCOCC3)ccc21,,,"1.3 µM [rising, partial curve]"
O=C(CSc1ncnc2ccccc12)N1CCCC1,3.92,"0.58 µM [falling, single point]",
COC(=O)C(/C=N/O)NC(=O)c1ccccc1 (stereo not given),-3.52,,
COc1ccc(CNC(=O)COC(=O)c2cc(-c3ccco3)nc3ccccc23)cc1,,"6.51 µM [rising, single point]",
CSCCC(NS(=O)(=O)c1ccc(C)cc1)C(=O)NNC(=O)c1csc(N2CCOCC2)n1 (stereo not given),21,,
O=C(NNC(=O)C12CC3CC(CC(C3)C1)C2)c1cnccn1,69.1,"8.2 µM [falling, partial curve, poor fit]","29.1 µM [rising, single point]"
Cc1c(Br)c([N+](=O)[O-])nn1CC(=O)Nc1sc2c(c1C(=O)OC(C)C)CCC(C)C2 (stereo not given),6.85,"29.1 µM [rising, single point]",
COc1ccccc1OCC(=O)NNC(=O)c1cccs1,50,"11.6 µM [rising, single point]","16.4 µM [rising, single point]"
Cc1sc(NC(=O)C2CSC3(C)CCC(=O)N23)nc1-c1ccc(F)cc1 (stereo not given),12.1,"2.82 µM [rising, partial curve]",
Cc1ccc(NC2CCCCC2NS(=O)(=O)c2ccc(Cl)cc2)cc1 (stereo not given),-3.47,"4.11 µM [rising, single point]",
Cc1ccc(S(=O)(=O)N2CCN(CC(=O)N/N=C/c3ccco3)CC2)cc1,30.3,"0.231 µM [falling, full curve]","5.17 µM [rising, full curve, poor fit]"
CCN(C(=O)COC(=O)c1cc(S(=O)(=O)N2CCOCC2)c(Cl)cc1Cl)C1CCS(=O)(=O)C1 (stereo not given),-2.39,"0.82 µM [rising, partial curve, poor fit]",
O=c1n(CCCN2CCN(c3cccc(Cl)c3)CC2)nc2ccccn12,30.7,"29.1 µM [rising, single point]","20.6 µM [rising, single point]"
CCN(CC)CCNC(=O)c1cn(C)c2ccc(S(=O)(=O)N(C)C3CCCCC3)cc2c1=O,5.74,,
O=c1cc(CN2CCN(S(=O)(=O)c3ccccc3)CC2)nc2ccc(Cl)cn12,-8.3,"2.59 µM [rising, single point]",
COc1ccc(S(=O)(=O)NCCOc2cccc3cccnc23)cc1OC,-33.6,"29.1 µM [falling, partial curve, poor fit]",
COCCn1c(SCC(=O)Nc2ccccc2F)nc2c([nH]c3ccccc32)c1=O,32.2,"0.116 µM [rising, full curve, poor fit]","0.0517 µM [rising, full curve, poor fit]"
